System: mSWI/SNF complexes
Experiment: mSWI/SNF complex purification with HA-tagged baits and mass spectrometry (peptide counts)
Set-up: species or system human
Settings: 293_HA-BRD7: HA-BRD7 bait purification; for Total: total peptide count per co-purified protein; for Unique: unique peptide count per co-purified protein

B1: SCAF4 (protein, UniProt O95104 1-1147, looked up)
SR-related and CTD-associated …: MDAVNAFNQELFSLMDMKPPISRAKMILITKAAIKAIKLYKHVVQIVEKFIKKCKPEYKVPGLYVIDSIVRQSRHQFGTDKDVFGPRFSKNITATFQYLYLCPSEDKSKIVRVLNLWQKNGVFKIEIIQPLLDMAAGTSNAAPVAENVTNNEGSPPPPVKVSSEPPTQATPNSVPAVPQLPSSDAFAAVAQLFQTTQGQQLQQILQTFQQPPKPQSPALDNAVMAQVQAITAQLKTTPTQPSEQKAAFPPPEQKTAFDKKLLDRFDYDDEPEAVEESKKEDTTAVTTTAPAAAVPPAPTATVPAAAAPAAASPPPPQAPFGFPGDGMQQPAYTQHQNMDQFQPRMMGIQQDPMHHQVPLPPNGQMPGFGLLPTPPFPPMAQPVIPPTPPVQQPFQASFQAQNEPLTQKPHQQEMEVEQPCIQEVKRHMSDNRKSRSRSASRSPKRRRSRSGSRSRRSRHRRSRSRSRDRRRHSPRSRSQERRDREKERERRQKGLPQVKPETASVCSTTLWVGQLDKRTTQQDVASLLEEFGPIESINMIPPRGCAYIVMVHRQDAYRALQKLSRGNYKVNQKSIKIAWALNKGIKADYKQYWDVELGVTYIPWDKVKPEELESFCEGGMLDSDTLNPDWKGIPKKPENEVAQNGGAETSHTEPVSPIPKPLPVPVPPIPVPAPITVPPPQVPPHQPGPPVVGALQPPAFTPPLGIPPPGFGPGVPPPPPPPPFLRPGFNPMHLPPGFLPPGPPPPITPPVSIPPPHTPPISIPNSTIAGINEDTTKDLSIGNPIPTVVSGARGNAESGDSVKMYGSAVPPAAPTNLPTPPVTQPVSLLGTQGVAPGPVIGLQAPSTGLLGARPGLIPLQRPPGMPPPHLQRFPLMPPRPMPPHMMHRGPPPGPGGFAMPPPHGMKGPFPPHGPFVRPGGMPGLGGPGPGPGGPEDRDGRQQPPQQPQQQPQPQAPQQPQQQQQQQPPPSQQPPPTQQQPQQFRNDNRQQFNSGRDQERFGRRSFGNRVENDRERYGNRNDDRDNSNRDRREWGRRSPDRDRHRDLEERNRRSSGHRDRERDSRDRESRREKEEARGKEKPEVTDRAGGNKTVEPPISQVGNVDTASELEKGVSEAAVLKPSEELPAEATSSVEPEKDSGSAAEAPR
**Q.** B1 was tested. Which Total did it give?
**A.** 4

**Q.** And the Unique?
**A.** 4

B2: GOT2 (protein, UniProt P00505 30-430, looked up)
Aspartate aminotransferase, …: SSWWTHVEMGPPDPILGVTEAFKRDTNSKKMNLGVGAYRDDNGKPYVLPSVRKAEAQIAAKNLDKEYLPIGGLAEFCKASAELALGENSEVLKSGRFVTVQTISGTGALRIGASFLQRFFKFSRDVFLPKPTWGNHTPIFRDAGMQLQGYRYYDPKTCGFDFTGAVEDISKIPEQSVLLLHACAHNPTGVDPRPEQWKEIATVVKKRNLFAFFDMAYQGFASGDGDKDAWAVRHFIEQGINVCLCQSYAKNMGLYGERVGAFTMVCKDADEAKRVESQLKILIRPMYSNPPLNGARIAAAILNTPDLRKQWLQEVKVMADRIIGMRTQLVSNLKKEGSTHNWQHITDQIGMFCFTGLKPEQVERLIKEFSIYMTKDGRISVAGVTSSNVGYLAHAIHQVTK
**Q.** For B2, which Total is on record?
**A.** 4

**Q.** And the Unique?
**A.** 4
